# Reference: the supplement of paper PMC4604168 (melanoma cell lines)
# Some of the results follow. Repeats are few or missing, and single values can be far off.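 Cells were imaged in 1,536-well plates, and nuclei stained with an antibody against cleaved PARP were counted against all DNA-stained nuclei to give the apoptosis fraction. Screening doses were chosen to leave most cells alive, and resting and induced cleaved-PARP levels differ strongly between cell lines.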
# Tests used:
# Test in all cases: cleaved PARP positive nuclei fraction relative to DMSO control; melanoma cells; higher = more apoptosis
# Details in all cases: library dose: low library concentration; 72 h
# WM115 = system: WM115
# WM1716 = system: WM1716
# WM1745 = system: WM1745
# WM3526 = system: WM3526
# WM3619 = system: WM3619
# WM451Lu = system: WM451Lu
SMILES,cleaved PARP positive nuclei fraction (WM115) [%],cleaved PARP positive nuclei fraction (WM1716) [%],cleaved PARP positive nuclei fraction (WM1745) [%],cleaved PARP positive nuclei fraction (WM3526) [%],cleaved PARP positive nuclei fraction (WM3619) [%],cleaved PARP positive nuclei fraction (WM451Lu) [%]
"NC(=O)c1ccc(N(C(N)=O)c2c(F)cccc2F)nc1-c1ccc(F)cc1F + Cc1cc(Nc2cc(N3CCN(C)CC3)nc(/C=C/c3ccccc3)n2)n[nH]1 [ENMD2076] (first compound 0.4 µM, partner dose 0.04 µM)",187,103,101,40,64.1,50.9
"CCCCCCCCc1ccc(CCC(N)(CO)CO)cc1 [fingolimod] + Cc1ccc(NC(=O)c2cccc(N(C)C)c2)cc1NC(=O)c1ccc(O)cc1 [ZM336372] (first compound 2 µM, partner dose 2 µM)",139,65.9,125,68,98.5,370
"Cn1sc(=O)n(Cc2ccccc2)c1=O + NCC(=O)Nc1ccc(-n2nc(C(F)(F)F)cc2-c2ccc3c(ccc4ccccc43)c2)cc1 [OSU03012] (first compound 0.4 µM, partner dose 1 µM)",650,98.7,95.9,432,91.5,140
"NC(=O)c1ccc(N(C(N)=O)c2c(F)cccc2F)nc1-c1ccc(F)cc1F + NC(=O)Nc1cc(-c2cccc(F)c2)sc1C(=O)N[C@H]1CCCNC1 [AZD7762] (first compound 0.4 µM, partner dose 0.02 µM)",95.9,208,119,154,171,57.2
"C[C@@H](N)c1ccc(C(=O)Nc2ccnc3[nH]ccc23)cc1 + Nc1nc(F)nc2c1ncn2[C@@H]1O[C@H](CO)[C@@H](O)[C@@H]1O [fludarabine] (first compound 0.4 µM, partner dose 0.2 µM)",220,199,115,391,92.4,146
"C[C@]1(O)C[C@@H](c2nc(-c3ccc4ccc(-c5ccccc5)nc4c3)c3c(N)nccn32)C1 + N#Cc1c(O)c2c(-c3ccc(-c4ccccc4O)cc3)csc2[nH]c1=O [A769662] (first compound 0.4 µM, partner dose 2 µM)",125,91.2,102,83.7,106,150
"C[C@@H](N)c1ccc(C(=O)Nc2ccnc3[nH]ccc23)cc1 + CS(=O)(=O)c1ccc(C(=O)Nc2ccc(Cl)c(-c3ccccn3)c2)c(Cl)c1 [vismodegib] (first compound 0.4 µM, partner dose 1 µM)",161,3190,123,70.9,72.8,49.9
"CN(c1ncccc1CNc1nc(Nc2ccc3c(c2)CC(=O)N3)ncc1C(F)(F)F)S(C)(=O)=O + C[C@@H]1CCN(C(=O)CC#N)C[C@@H]1N(C)c1ncnc2[nH]ccc12 [CP690550] (first compound 0.08 µM, partner dose 1 µM)",143,90.8,102,53.7,93.5,43.2
"Cn1cnc2c(F)c(Nc3ccc(Br)cc3Cl)c(C(=O)NOCCO)cc21 [selumetinib] + CC(=O)O[C@@]12CO[C@@H]1C[C@H](O)[C@@]1(C)C(=O)[C@H](O)C3=C(C)[C@@H](OC(=O)[C@H](O)[C@@H](NC(=O)OC(C)(C)C)c4ccccc4)C[C@@](O)([C@@H](OC(=O)c4ccccc4)[C@H]21)C3(C)C [Docetaxel] (first compound 0.015 µM, partner dose 0.0001 µM)",179,66.4,28.5,817,170,258
"Cn1sc(=O)n(Cc2ccccc2)c1=O + CO[C@@H]1[C@H](N(C)C(=O)c2ccccc2)C[C@H]2O[C@]1(C)n1c3ccccc3c3c4c(c5c6ccccc6n2c5c31)C(=O)NC4 [Midostaurin] (first compound 0.4 µM, partner dose 0.08 µM)",76.5,172,99.6,78.9,110,220
"CS(=O)(=O)c1ccc(C(=O)Nc2ccc(Cl)c(-c3ccccn3)c2)c(Cl)c1 [vismodegib] + O=S(=O)(c1ccccc1)N(CC(F)(F)F)c1ccc(C(O)(C(F)(F)F)C(F)(F)F)cc1 [T0901317] (first compound 1 µM, partner dose 1.4 µM)",58.3,174,105,54.7,105,43.7
"C[C@@H](N)c1ccc(C(=O)Nc2ccnc3[nH]ccc23)cc1 + NC(=O)Nc1cc(-c2cccc(F)c2)sc1C(=O)N[C@H]1CCCNC1 [AZD7762] (first compound 0.4 µM, partner dose 0.02 µM)",32.7,220,122,26.9,246,55.7
"CCN(CC)CCNC(=O)c1c(C)[nH]c(/C=C2\C(=O)Nc3ccc(F)cc32)c1C [sunitinib] + O=C1NC(=O)/C(=C/c2ccc(-c3ccc(F)cc3O)o2)S1 [AS252424] (first compound 0.4 µM, partner dose 1 µM)",76.7,73.2,395,337,77.3,237
"Cn1sc(=O)n(Cc2ccccc2)c1=O + C=CCn1c(=O)c2cnc(Nc3ccc(N4CCN(C)CC4)cc3)nc2n1-c1cccc(C(C)(C)O)n1 [MK1775] (first compound 0.4 µM, partner dose 0.02 µM)",73.4,47.8,113,59.4,136,52.7
"Cn1sc(=O)n(Cc2ccccc2)c1=O + COc1ccc(COc2ccc(Cc3cnc(N)nc3N)cc2OC)cc1 [GW2580] (first compound 0.4 µM, partner dose 1 µM)",124,99.2,94.6,131,82,98.8
"COc1ccc(C2=N[C@@H](c3ccc(Cl)cc3)[C@@H](c3ccc(Cl)cc3)N2C(=O)N2CCNC(=O)C2)c(OC(C)C)c1 [Nutlin-3] + COC(=O)c1sccc1S(=O)(=O)Nc1ccc(Nc2ccccc2)cc1OC [GSK0660] (first compound 0.1 µM, partner dose 1 µM)",161,248,85.1,85.5,197,44.2
"Cn1cnc2c(F)c(Nc3ccc(Br)cc3Cl)c(C(=O)NOCCO)cc21 [selumetinib] + Nc1ncn([C@H]2C[C@H](O)[C@@H](CO)O2)c(=O)n1 [decitabine] (first compound 0.015 µM, partner dose 0.1 µM)",310,36.5,106,158,111,64.6
"Cn1sc(=O)n(Cc2ccccc2)c1=O + Oc1nc(-c2ccc(C(F)(F)F)cc2)nc2c1CSCC2 [XAV939] (first compound 0.4 µM, partner dose 2 µM)",46.3,44,93.9,85,97.2,212
"CC1(C)CCC(c2ccc(Cl)cc2)=C(CN2CCN(c3ccc(C(=O)NS(=O)(=O)c4ccc(N[C@H](CCN5CCOCC5)CSc5ccccc5)c(S(=O)(=O)C(F)(F)F)c4)cc3)CC2)C1 + CCCS(=O)(=O)Nc1ccc(F)c(C(=O)c2c[nH]c3ncc(Cl)cc23)c1F [PLX4720] (first compound 0.4 µM, partner dose 0.08 µM)",509,108,1210,62.8,146,54.4
"NC1(c2ccc(-c3nc4ccn5c(=O)[nH]nc5c4cc3-c3ccccc3)cc2)CCC1 + OCc1c[nH]c2ccccc12 [Indole-3-carbinol] (first compound 0.4 µM, partner dose 0.8 µM)",97.5,52.9,98.9,225,102,94
"NC(=O)c1ccc(N(C(N)=O)c2c(F)cccc2F)nc1-c1ccc(F)cc1F + COc1cc(N2CCC(N3CCN(C)CC3)CC2)ccc1Nc1ncc(Cl)c(Nc2ccccc2S(=O)(=O)C(C)C)n1 [NVP-TAE684] (first compound 0.4 µM, partner dose 0.08 µM)",47,25.2,103,159,84.8,32.7
"COc1ccc(C2=N[C@@H](c3ccc(Cl)cc3)[C@@H](c3ccc(Cl)cc3)N2C(=O)N2CCNC(=O)C2)c(OC(C)C)c1 [Nutlin-3] + Cc1ccc(NC(=O)c2cccc(N(C)C)c2)cc1NC(=O)c1ccc(O)cc1 [ZM336372] (first compound 0.1 µM, partner dose 2 µM)",144,140,99.8,148,104,238
"CCCCCCCCc1ccc(CCC(N)(CO)CO)cc1 [fingolimod] + Cn1cc(/C=C2\C(=O)Nc3cccnc32)c2ccccc21 [GW441756] (first compound 2 µM, partner dose 0.4 µM)",27.1,61,120,82.3,93.9,62.3
"CC1(C)CCC(c2ccc(Cl)cc2)=C(CN2CCN(c3ccc(C(=O)NS(=O)(=O)c4ccc(N[C@H](CCN5CCOCC5)CSc5ccccc5)c(S(=O)(=O)C(F)(F)F)c4)cc3)CC2)C1 + Cc1cn(-c2cc(NC(=O)c3ccc(C)c(Nc4nccc(-c5cccnc5)n4)c3)cc(C(F)(F)F)c2)cn1 [nilotinib] (first compound 0.4 µM, partner dose 0.2 µM)",274,42,681,91.5,111,69.7
"CCCCCCCCc1ccc(CCC(N)(CO)CO)cc1 [fingolimod] + N#Cc1c(O)c2c(-c3ccc(-c4ccccc4O)cc3)csc2[nH]c1=O [A769662] (first compound 2 µM, partner dose 2 µM)",236,78.9,135,86.4,143,72.3
"CCN(CC)CCNC(=O)c1c(C)[nH]c(/C=C2\C(=O)Nc3ccc(F)cc32)c1C [sunitinib] + Oc1nc(-c2ccc(C(F)(F)F)cc2)nc2c1CSCC2 [XAV939] (first compound 0.4 µM, partner dose 2 µM)",68.7,104,131,198,93.8,49.4
"C[C@@H](N)c1ccc(C(=O)Nc2ccnc3[nH]ccc23)cc1 + C[C@@H]1CCN(C(=O)CC#N)C[C@@H]1N(C)c1ncnc2[nH]ccc12 [CP690550] (first compound 0.4 µM, partner dose 1 µM)",41,238,114,203,70.2,57.5
"COc1ccc(C2=N[C@@H](c3ccc(Cl)cc3)[C@@H](c3ccc(Cl)cc3)N2C(=O)N2CCNC(=O)C2)c(OC(C)C)c1 [Nutlin-3] + CN(NC(=O)CC(=O)NN(C)C(=S)c1ccccc1)C(=S)c1ccccc1 [STA4783] (first compound 0.1 µM, partner dose 0.006 µM)",60.5,123,237,104,222,220
"CCN(CC)CCNC(=O)c1c(C)[nH]c(/C=C2\C(=O)Nc3ccc(F)cc32)c1C [sunitinib] + Cn1cc(/C=C2\C(=O)Nc3cccnc32)c2ccccc21 [GW441756] (first compound 0.4 µM, partner dose 0.4 µM)",42.3,83.8,112,88.2,75,70.3

# A second format for part of the listing above:
SMILES | cleaved PARP positive nuclei fraction (WM115) [%] | cleaved PARP positive nuclei fraction (WM1716) [%] | cleaved PARP positive nuclei fraction (WM1745) [%] | cleaved PARP positive nuclei fraction (WM3526) [%] | cleaved PARP positive nuclei fraction (WM3619) [%] | cleaved PARP positive nuclei fraction (WM451Lu) [%]
C[C@@H](N)c1ccc(C(=O)Nc2ccnc3[nH]ccc23)cc1 + CS(=O)(=O)c1ccc(C(=O)Nc2ccc(Cl)c(-c3ccccn3)c2)c(Cl)c1 [vismodegib] (first compound 0.4 µM, partner dose 1 µM) | 161 | 3190 | 123 | 70.9 | 72.8 | 49.9
CCN(CC)CCNC(=O)c1c(C)[nH]c(/C=C2\C(=O)Nc3ccc(F)cc32)c1C [sunitinib] + Oc1nc(-c2ccc(C(F)(F)F)cc2)nc2c1CSCC2 [XAV939] (first compound 0.4 µM, partner dose 2 µM) | 68.7 | 104 | 131 | 198 | 93.8 | 49.4
